Experimental data taken from the supplement of paper PMC3334620.
The full ranking holds about 33,000 sequences; the median of “E-score (-0.5 to 0.5)” is about -0.0059, and the highest 2% start at about 0.26. The list shows a part of the results.

The sequences below were run against T1, Cin5 (UniProt P40917) (assay: PBM E-score (8-mer binding enrichment) (E-score (-0.5 to 0.5)); higher = stronger / more preferred TF binding). Conditions: protein concentration: 100 nM; construct: GST-full length.
T1 sequence: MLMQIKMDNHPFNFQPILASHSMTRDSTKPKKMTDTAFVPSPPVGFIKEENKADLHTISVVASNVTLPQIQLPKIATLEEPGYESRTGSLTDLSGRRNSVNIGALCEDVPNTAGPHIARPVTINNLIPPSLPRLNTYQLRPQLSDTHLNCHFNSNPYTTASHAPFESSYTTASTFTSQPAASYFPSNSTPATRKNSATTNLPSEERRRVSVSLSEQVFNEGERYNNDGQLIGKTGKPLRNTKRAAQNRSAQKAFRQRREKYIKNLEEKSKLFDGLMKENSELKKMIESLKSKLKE
Experimental: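 Universal 'all 10-mer' protein binding microarrays (Agilent AMADID 015681) probed with GST-tagged S. cerevisiae TFs (full-length or DBD) made by in vitro transcription/translation (PURExpress), about 100-200 nM. Bound TF was detected with fluorescent anti-GST. Each ungapped 8-mer (which stands for itself and its reverse complement) is scored by the PBM enrichment score (E-score), a modified Wilcoxon-Mann-Whitney statistic from -0.5 to +0.5, computed with the Universal PBM Analysis Suite. Scale: above 0.35 generally sequence-specific binding.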

Sequence | PBM E-score
CTCGGTCC | -0.179
CCCGTTTC | -0.0716
AGGTGCCC | -0.274
CAGGATAG | 0.049
ATGAACAT | 0.134
CAAACTAG | -0.0187
ATCTTGGC | 0.0234
GAACAGTC | -0.136
AGAAAGAG | 0.0149
AAGTAATC | 0.339
CCATGCCA | 0.0583
CAAGGTCA | -0.182
ATTCTCGC | -0.0981
AGTGAAAG | 0.028
ATGTGTGA | -0.0496
ATCTTTCC | 0.187
GATACGTA | 0.0494
AACATATC | 0.128
CGGGAGAC | -0.129
GCTCGGGA | -0.157
AGGAGCTG | -0.219
AAGGGCGA | -0.241

Retrieved one by one from the list above (three):
Sequence | PBM E-score
ATTCTCGC | -0.0981
AAGTAATC | 0.339
ATGAACAT | 0.134

Further entries follow:

Sequence | PBM E-score
CACACTCC | -0.0415
ACAGGGCG | 0.0253
TCCAGGGA | -0.201
ATCCCGTG | 0.219
CCTGTCAA | -0.0966
ACTCAGGC | -0.0282
GTTATGTA | 0.276
AGCACCCT | -0.286
ATCCATTG | 0.144
GGCATGGA | 0.0379
AGCGCCAG | -0.2
CTGAATGC | -0.173
CTAAGAGC | -0.0674
AACCTCGA | -0.0539
ATTTGAGA | 0.104
GTGTTCTA | 0.194
ACGGCGTA | -0.0363
AAGGAACC | 0.0344
AAAAGTAT | 0.138
AGAAGTGC | -0.255
AATCAACC | 0.141
AGCAAGCT | -0.156

Sequence | PBM E-score
AAGACCCC | -0.0378
AAAATACC | 0.0891
TAATGGAA | 0.281
CGAATCAC | 0.0292
ACTCACCA | 0.0441
ACGCTGAG | -0.0314
CTTCTAAA | -0.202
TAGACTGA | -0.0193
GTTCGGCA | -0.0166
CGATCCAG | 0.0305
ATCAGTTA | 0.165
CTTTTCTA | -0.184
AGGTGGAT | -0.12
ACGATGAT | 0.0141
GACTAAGA | -0.0692
AAGACGTA | -0.0276
AAGCGGAT | 0.0776
ATGAGGTA | 0.128
TCCGCACA | -0.0639
ATAAAAAA | 0.0702
CGTGGCGA | -0.141
CACTCCTA | -0.232

Sequence | PBM E-score
GGGTACTA | 0.0192
AACGTTAG | 0.0292
CGGTTCAC | -0.206
CTAAATTC | 0.0709
ATTCCACG | 0.0808
TGACACCA | 0.00088
GTGTCTGA | 0.0227
CGGAAGCC | -0.138
GCAACATA | 0.0111
AGTGGCGA | 0.16
GCGAAGAA | 0.0108
GTGTCCTA | -0.0463
AGTAGTGC | 0.0767
ATGGCCGA | 0.0473
GGCGGCAA | -0.184
GCCTAAAC | -0.179
CGGCCTGC | -0.254
TCGGGTAA | 0.0904
AGCGCGTG | -0.118
GCGGAGAC | 0.0831
GGGATGAC | 0.0306
GAACATAA | 0.198

Looked up above.
Entry of CGGCCTGC under PBM E-score: -0.254
Entry of GCGGAGAC under PBM E-score: 0.0831
Entry of AGTGGCGA under PBM E-score: 0.16
Entry of CGGAAGCC under PBM E-score: -0.138

The listing continues:

Sequence | PBM E-score
CGTCATAG | -0.116
TCACCGCA | -0.0648
CCAGCTGG | -0.0237
AACCGCGA | 0.232
AGGGCGAC | -0.145
CCACCTCC | -0.266
ACTTCCGA | 0.103
GAATACGC | 0.151
ACCGTCAA | -0.0143
CGTTCAGC | -0.0513
AGGCCCAC | -0.376
AAGCCGAC | -0.101
AACTTGGA | 0.0817
CACTGTCA | 0.0443
CTCGCCTA | 0.0943
CGCGAGAA | -0.0242
CAGGAAAA | 0.0838
CCCGCAAA | 0.142
AAACAAAA | 0.137
TACCTAGA | -0.0428
AACTAGGG | -0.0214
